Results published in the supplement of paper PMC10849652.
The other results are listed elsewhere or left out.

Protein sequences, listed by entry. Tags and fused reporters are not part of them. Lines headed by an entry give the natural chain unless they say otherwise; changes in a name come on top.
UniProt P0DPD7: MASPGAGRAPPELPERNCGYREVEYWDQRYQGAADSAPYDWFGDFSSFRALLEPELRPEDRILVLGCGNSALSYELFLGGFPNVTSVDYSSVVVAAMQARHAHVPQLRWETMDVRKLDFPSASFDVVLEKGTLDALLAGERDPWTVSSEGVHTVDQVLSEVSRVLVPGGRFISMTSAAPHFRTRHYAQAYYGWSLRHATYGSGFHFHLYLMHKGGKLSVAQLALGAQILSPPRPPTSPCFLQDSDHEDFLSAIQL
UniProt Q96FX2: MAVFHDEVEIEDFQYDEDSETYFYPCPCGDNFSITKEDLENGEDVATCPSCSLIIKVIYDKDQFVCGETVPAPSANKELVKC
UniProt Q99848: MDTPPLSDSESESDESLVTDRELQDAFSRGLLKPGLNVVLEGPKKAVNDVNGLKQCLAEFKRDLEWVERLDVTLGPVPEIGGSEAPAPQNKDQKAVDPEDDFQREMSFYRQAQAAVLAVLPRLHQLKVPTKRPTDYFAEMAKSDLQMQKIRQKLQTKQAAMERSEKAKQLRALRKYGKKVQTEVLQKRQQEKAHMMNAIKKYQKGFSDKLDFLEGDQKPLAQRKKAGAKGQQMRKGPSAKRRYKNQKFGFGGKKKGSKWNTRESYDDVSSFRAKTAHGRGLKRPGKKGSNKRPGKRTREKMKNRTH
UniProt O75923: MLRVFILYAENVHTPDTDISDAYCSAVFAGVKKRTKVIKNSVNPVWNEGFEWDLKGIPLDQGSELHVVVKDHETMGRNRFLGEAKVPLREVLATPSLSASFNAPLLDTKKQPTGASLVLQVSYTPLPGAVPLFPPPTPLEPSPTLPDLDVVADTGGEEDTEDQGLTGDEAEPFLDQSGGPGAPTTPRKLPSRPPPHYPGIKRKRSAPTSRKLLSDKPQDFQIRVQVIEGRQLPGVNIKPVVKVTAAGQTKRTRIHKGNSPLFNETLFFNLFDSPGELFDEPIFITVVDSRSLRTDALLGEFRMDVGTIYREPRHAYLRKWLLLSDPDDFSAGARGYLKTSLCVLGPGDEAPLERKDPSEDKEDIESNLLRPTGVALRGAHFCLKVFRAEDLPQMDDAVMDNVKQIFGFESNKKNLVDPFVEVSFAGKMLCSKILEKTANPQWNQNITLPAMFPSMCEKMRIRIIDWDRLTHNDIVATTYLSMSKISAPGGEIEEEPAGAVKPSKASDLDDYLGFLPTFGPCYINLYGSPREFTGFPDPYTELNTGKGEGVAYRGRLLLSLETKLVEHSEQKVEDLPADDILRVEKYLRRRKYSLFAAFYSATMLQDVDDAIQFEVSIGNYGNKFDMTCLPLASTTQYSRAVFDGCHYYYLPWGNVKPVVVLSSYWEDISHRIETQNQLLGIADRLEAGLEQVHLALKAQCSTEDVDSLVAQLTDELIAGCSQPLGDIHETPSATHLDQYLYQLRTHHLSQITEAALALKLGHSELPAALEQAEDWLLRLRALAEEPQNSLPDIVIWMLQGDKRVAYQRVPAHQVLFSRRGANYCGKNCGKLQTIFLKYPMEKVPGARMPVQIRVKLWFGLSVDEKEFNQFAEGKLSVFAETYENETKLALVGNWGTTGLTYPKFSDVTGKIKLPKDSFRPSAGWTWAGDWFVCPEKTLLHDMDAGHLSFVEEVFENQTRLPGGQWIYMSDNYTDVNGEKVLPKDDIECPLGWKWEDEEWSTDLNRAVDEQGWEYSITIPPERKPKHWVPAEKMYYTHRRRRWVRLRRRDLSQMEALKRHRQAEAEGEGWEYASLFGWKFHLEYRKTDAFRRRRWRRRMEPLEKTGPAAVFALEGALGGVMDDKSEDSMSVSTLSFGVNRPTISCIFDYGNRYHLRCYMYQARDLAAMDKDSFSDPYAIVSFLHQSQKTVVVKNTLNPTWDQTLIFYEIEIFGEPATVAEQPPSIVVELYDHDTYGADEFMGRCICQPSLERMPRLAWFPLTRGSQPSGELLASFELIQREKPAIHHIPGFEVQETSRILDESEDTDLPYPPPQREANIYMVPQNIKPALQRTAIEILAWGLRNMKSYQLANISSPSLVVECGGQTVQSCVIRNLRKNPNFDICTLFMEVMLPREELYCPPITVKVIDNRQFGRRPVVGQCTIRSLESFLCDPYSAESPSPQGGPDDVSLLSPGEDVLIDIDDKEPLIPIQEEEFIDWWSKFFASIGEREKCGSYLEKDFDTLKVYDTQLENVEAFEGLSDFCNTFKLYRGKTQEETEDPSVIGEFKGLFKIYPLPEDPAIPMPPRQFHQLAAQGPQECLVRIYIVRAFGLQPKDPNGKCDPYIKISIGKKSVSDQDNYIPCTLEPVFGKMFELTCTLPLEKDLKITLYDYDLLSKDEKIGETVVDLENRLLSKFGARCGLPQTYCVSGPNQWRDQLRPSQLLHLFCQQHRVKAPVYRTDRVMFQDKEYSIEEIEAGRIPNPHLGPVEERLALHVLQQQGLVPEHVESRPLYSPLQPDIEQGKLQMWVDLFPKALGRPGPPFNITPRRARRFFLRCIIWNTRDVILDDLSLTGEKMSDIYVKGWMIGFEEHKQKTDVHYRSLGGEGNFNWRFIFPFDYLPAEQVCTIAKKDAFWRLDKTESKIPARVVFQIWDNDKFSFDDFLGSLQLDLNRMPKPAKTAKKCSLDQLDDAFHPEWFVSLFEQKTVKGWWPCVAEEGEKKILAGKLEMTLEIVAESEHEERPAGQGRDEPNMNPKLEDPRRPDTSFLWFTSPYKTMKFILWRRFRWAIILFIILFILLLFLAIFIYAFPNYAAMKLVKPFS
UniProt P26641, whole entry, looked up: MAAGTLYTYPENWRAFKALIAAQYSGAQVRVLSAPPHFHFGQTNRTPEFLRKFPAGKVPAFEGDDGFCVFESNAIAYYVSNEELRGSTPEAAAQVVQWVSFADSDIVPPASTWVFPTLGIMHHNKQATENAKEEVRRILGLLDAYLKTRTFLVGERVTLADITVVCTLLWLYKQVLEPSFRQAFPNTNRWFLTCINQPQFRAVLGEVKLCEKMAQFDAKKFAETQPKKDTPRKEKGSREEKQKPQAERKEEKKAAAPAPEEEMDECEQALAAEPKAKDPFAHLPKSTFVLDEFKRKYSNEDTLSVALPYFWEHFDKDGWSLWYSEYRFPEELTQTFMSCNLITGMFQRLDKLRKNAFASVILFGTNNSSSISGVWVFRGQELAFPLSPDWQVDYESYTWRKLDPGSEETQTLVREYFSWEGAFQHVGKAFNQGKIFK
UniProt Q9NZJ0: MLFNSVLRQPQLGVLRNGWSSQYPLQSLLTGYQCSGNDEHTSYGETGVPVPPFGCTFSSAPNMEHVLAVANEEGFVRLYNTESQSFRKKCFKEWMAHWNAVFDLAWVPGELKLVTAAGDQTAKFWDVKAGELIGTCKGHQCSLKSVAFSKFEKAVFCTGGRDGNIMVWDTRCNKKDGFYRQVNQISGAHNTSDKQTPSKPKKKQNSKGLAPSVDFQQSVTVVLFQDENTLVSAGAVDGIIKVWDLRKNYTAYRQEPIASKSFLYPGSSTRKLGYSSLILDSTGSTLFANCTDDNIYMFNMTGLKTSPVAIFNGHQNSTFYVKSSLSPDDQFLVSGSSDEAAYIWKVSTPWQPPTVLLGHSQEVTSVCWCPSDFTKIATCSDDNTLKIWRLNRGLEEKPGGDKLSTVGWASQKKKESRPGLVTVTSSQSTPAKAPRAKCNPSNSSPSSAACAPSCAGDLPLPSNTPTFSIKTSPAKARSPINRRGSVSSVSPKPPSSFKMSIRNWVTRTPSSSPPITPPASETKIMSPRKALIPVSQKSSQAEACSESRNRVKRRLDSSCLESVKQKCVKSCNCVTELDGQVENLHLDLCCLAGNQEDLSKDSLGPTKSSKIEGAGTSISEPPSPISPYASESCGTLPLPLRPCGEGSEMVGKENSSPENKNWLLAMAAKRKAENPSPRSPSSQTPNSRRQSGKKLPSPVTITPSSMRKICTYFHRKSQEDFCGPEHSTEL
UniProt Q8NDI1: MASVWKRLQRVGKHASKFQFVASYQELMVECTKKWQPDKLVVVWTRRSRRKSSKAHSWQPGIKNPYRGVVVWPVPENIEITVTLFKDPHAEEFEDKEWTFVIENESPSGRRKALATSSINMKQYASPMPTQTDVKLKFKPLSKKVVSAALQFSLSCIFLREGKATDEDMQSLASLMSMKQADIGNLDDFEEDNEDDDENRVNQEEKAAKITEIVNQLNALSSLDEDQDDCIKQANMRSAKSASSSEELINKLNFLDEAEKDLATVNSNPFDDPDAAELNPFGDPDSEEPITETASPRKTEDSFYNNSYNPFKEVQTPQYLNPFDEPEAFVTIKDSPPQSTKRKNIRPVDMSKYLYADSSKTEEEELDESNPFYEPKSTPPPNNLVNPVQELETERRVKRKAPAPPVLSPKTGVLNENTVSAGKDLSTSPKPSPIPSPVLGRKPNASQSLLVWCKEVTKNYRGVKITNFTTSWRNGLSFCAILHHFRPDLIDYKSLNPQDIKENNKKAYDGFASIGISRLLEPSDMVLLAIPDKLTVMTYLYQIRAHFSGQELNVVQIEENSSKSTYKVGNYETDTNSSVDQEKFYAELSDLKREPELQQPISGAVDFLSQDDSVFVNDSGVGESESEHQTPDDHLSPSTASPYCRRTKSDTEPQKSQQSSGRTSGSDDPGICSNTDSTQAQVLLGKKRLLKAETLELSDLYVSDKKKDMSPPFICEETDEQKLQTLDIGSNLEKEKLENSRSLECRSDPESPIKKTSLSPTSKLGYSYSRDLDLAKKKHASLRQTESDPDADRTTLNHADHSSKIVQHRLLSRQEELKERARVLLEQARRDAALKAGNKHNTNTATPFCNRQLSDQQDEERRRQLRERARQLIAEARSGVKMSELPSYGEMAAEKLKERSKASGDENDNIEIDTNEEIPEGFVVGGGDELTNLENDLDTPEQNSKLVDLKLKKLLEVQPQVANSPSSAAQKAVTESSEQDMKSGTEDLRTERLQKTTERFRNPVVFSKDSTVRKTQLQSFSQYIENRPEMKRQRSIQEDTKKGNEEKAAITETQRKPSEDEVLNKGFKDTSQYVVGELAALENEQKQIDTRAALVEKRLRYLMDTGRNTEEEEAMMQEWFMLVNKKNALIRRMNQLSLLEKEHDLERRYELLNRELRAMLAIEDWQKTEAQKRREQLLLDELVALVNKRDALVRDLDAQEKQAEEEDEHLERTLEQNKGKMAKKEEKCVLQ
UniProt Q9BY44: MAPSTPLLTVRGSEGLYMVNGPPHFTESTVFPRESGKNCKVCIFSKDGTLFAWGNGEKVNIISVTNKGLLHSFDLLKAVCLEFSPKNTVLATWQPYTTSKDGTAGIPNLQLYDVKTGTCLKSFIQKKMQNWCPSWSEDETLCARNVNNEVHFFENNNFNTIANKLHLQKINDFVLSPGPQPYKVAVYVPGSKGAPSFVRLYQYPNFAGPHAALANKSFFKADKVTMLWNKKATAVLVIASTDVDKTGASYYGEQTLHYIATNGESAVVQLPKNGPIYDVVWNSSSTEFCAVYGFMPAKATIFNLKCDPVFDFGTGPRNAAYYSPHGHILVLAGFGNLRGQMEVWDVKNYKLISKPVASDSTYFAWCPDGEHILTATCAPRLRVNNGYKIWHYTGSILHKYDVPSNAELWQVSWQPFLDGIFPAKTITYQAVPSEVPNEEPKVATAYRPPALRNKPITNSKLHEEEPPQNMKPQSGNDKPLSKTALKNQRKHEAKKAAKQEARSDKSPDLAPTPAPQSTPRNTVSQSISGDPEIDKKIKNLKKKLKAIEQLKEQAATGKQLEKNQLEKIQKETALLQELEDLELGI
UniProt Q6ZPD9: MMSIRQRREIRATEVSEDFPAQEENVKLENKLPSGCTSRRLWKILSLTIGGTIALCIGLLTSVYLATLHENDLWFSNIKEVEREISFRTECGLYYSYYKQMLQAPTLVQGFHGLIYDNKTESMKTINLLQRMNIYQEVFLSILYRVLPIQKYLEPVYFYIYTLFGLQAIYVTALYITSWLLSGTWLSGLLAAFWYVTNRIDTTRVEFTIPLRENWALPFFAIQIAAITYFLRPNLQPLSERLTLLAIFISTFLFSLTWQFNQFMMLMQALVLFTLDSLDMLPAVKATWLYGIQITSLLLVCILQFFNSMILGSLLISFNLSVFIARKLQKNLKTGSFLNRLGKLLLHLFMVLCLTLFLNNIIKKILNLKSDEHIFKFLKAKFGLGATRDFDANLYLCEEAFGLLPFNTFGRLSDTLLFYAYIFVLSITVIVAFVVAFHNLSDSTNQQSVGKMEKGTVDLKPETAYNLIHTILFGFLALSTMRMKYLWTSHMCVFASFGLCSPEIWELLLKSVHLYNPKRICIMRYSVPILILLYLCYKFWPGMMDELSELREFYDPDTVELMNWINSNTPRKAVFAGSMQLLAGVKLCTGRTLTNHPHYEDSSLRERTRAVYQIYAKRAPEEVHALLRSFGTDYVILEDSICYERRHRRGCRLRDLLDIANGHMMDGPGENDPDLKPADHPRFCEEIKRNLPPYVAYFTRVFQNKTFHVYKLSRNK

The targets below were run with CC1=C2C(=CC=C1)N=C(N(C2=O)C3=CC=CC=C3C)CN4C=NC5=C(N=CN=C54)N (assay: log2 fold change, soluble protein after heating vs DMSO (PISA); higher = thermal stabilisation; K562 lysate, 10 uM; active = over 0.2 and 3.5 SD of the protein, either way, in both replicates (recomputed)).
How it was run: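 Soluble protein was defined as the supernatant remaining after 21,000xg for 90 min, following pooling of heated aliquots and adjustment to 0.5% NP-40 at 4°C. Before that, crude K562 extract at 1 mg/mL protein in PBS pH 7.4 with 1 mM MgCl2 was treated with 10 μM compound for 30 min and heated for 3 min across 48°C-58°C. Quantification used TMTpro 16plex LC-MS/MS with channel sums equalised, and values are log-two fold changes in thermal stability relative to solvent controls from duplicates.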

Target | log2 fold change
EEF1AKMT4 (UniProt P0DPD7) | inactive: -0.036
DPH3 (UniProt Q96FX2) | inactive: 0.086
ECH1 (UniProt Q13011) | inactive: -0.006
EFL1 (UniProt Q7Z2Z2) | inactive: 0.007
EBNA1BP2 (UniProt Q99848) | inactive: -0.036
EAF1 (UniProt Q96JC9) | inactive: -0.031
DYSF isoform 13 (UniProt O75923) | inactive: -0.067
DTX3L (UniProt Q8TDB6) | inactive: -0.051
EEF1G isoform 2 (UniProt P26641) | inactive: -0.029
DPH5 isoform 5 (UniProt Q9H2P9) | inactive: 0.021
DST (UniProt Q03001) | inactive: 0.111
DTNBP1 (UniProt Q96EV8) | inactive: 0.019
DSC2 (UniProt Q02487) | inactive: -0.092
DTL (UniProt Q9NZJ0) | inactive: 0.089
ECI1 (UniProt P42126) | inactive: -0.039
DVL2 (UniProt O14641) | inactive: 0.032
EHBP1 isoform 2 (UniProt Q8NDI1) | inactive: 0.046
DXO (UniProt O77932) | inactive: 0.035
EIF2A (UniProt Q9BY44) | inactive: -0.012
EEF1AKMT2, A0A494BZY7 | inactive: -0.034
DUT (UniProt P33316) | inactive: -0.021
EDRF1 (UniProt Q3B7T1) | inactive: -0.04
DPY19L3 (UniProt Q6ZPD9) | inactive: -0.106

Exported as a markdown table: part of the list above.

| Target | log2 fold change |
| --- | --- |
| EAF1 (UniProt Q96JC9) | inactive: -0.031 |
| DYSF isoform 13 (UniProt O75923) | inactive: -0.067 |
